Assay results from PMC7819943, “Rice protein-binding microarrays: a tool to detect cis-acting elements near promoter regions in rice”.
The other results are listed elsewhere or left out.

Protein sequences, listed by entry. Tags and fused reporters are not part of them.
UniProt Q0JBA9, entry or part of it: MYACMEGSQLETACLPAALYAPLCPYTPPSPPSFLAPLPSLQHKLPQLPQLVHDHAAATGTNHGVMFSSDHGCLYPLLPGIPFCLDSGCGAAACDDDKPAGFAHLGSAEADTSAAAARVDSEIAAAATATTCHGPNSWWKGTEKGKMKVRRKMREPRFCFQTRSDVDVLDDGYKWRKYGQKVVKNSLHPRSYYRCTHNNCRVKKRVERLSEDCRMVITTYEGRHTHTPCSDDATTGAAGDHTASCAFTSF

These sequences were tested against OsWRKY34 (Oryza sativa, UniProt Q0JBA9 1-250) (assay: protein-binding microarray (RPBM); PBS, 2% BSA, 51.3 ng/ul salmon testes DNA, 50 uM zinc acetate, 200 nM TF, 25 C, 1 h; high values mean tight binding). Conditions: protein: recombinant; tags: N-terminal polyhistidine and DsRed monomer fusion (pET32a); label: CyDye5-dUTP incorporated in the synthesized complementary strand; 3' TTTTT single-stranded linker to array surface; dsDNA, one strand shown.
Outline: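 Transcription factors were each fused at the N-terminus to a polyhistidine tag plus DsRed and expressed in E. coli BL21-CodonPlus before Ni–NTA purification. Binding to a double-stranded custom Agilent array was carried out with 200 nM protein at 25 °C for 1 h in PBS, 2% BSA, salmon testes DNA and 50 µM zinc acetate. The binding signal is per-feature fluorescence intensity, in arbitrary units, on an Axon 4000B scanner.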

Row | Sequence | binding signal
1 | GGGCTTCTTTTTGGGTCGAGAATATTTTGGGCTTAAGGGCCGGAGTCACCTAGTGCAG | 8390 fluorescence intensity (a.u.)
2 | TGTTACATGTTTAATAGTGTGTGTGGGTGTGTGTCTAATGCGGAGTCACCTAGTGCAG | 8290 fluorescence intensity (a.u.)
3 | AACCTCATCATCCATCCCTCATCGCGGAGCTGCAACCAGTCGGAGTCACCTAGTGCAG | 11100 fluorescence intensity (a.u.)
4 | CCGATTGGACCCGTGACGTCCTTGCGCGCGTGATTTGCCACGGAGTCACCTAGTGCAG | 8860 fluorescence intensity (a.u.)
5 | CTTACGCCCGCCGATCGCTTCTCCCTCAACTCACACCCTTCGGAGTCACCTAGTGCAG | 9630 fluorescence intensity (a.u.)
6 | GTACACCACCGAAACCCTAATTAACCATTTCTCGCTCATCCGGAGTCACCTAGTGCAG | 8040 fluorescence intensity (a.u.)
7 | CCTCGTACGTGTTGGTGTTGCCAAGCCCAAGCCAGTAGTACGGAGTCACCTAGTGCAG | 8990 fluorescence intensity (a.u.)
8 | GGCCGTGTACTGACTCAGGGTTTACATTACCGGTTGACCACGGAGTCACCTAGTGCAG | 9730 fluorescence intensity (a.u.)
9 | TTTTTCCTGTGTTTTACAATCCTCTGTTTTGCACTTGCATCGGAGTCACCTAGTGCAG | 8830 fluorescence intensity (a.u.)
10 | TCAACCCAACAACCGCCGGTGCCGTCATTCTGCATCCCTCCGGAGTCACCTAGTGCAG | 12100 fluorescence intensity (a.u.)
11 | GTCTCAGTATCCTGCTCGTCCTAGTCTTCTTACTCCATCTCGGAGTCACCTAGTGCAG | 9140 fluorescence intensity (a.u.)
12 | TGGATCTTGTTGCCATCTCGGTTTTTCTTTTTTTCTTTTGCGGAGTCACCTAGTGCAG | 11000 fluorescence intensity (a.u.)
13 | TGGCCTGTTCACTTTGATGCTATTTTTAACCTTACCAAATCGGAGTCACCTAGTGCAG | 10700 fluorescence intensity (a.u.)
14 | ATCCTCGCTCACTTTCCATCTCACACGACGGCCACACTGACGGAGTCACCTAGTGCAG | 12700 fluorescence intensity (a.u.)
15 | ATATTCCTTACTTTTTAATTCCTAATTTCTATTTTTTTTCCGGAGTCACCTAGTGCAG | 8190 fluorescence intensity (a.u.)
16 | CCCATTCCAAGCTTTGACTTCTCACTAGCTTGACTACTGGCGGAGTCACCTAGTGCAG | 8040 fluorescence intensity (a.u.)
17 | GAGCTCCTACGCGTCGCCATCTCCTTCATCAACCACAAAACGGAGTCACCTAGTGCAG | 9980 fluorescence intensity (a.u.)
18 | AGGTGGGCCCGAAGTCTAAACCCTACTATTCCCAGATTCCCGGAGTCACCTAGTGCAG | 8200 fluorescence intensity (a.u.)
19 | ACTTTTCTACACACATAAACTTCTAACTTTTTCATCACATCGGAGTCACCTAGTGCAG | 13400 fluorescence intensity (a.u.)
20 | CATGGGAATTTTGGTGGGATGGGGATGGAGAATTGAGCAACGGAGTCACCTAGTGCAG | 8700 fluorescence intensity (a.u.)
21 | CACCTATGCGTGCCTAAGCGTGTGTTCGTTTCTTTCTAGCCGGAGTCACCTAGTGCAG | 9730 fluorescence intensity (a.u.)

Eight neighbouring records already listed, for reference:
Row | Sequence | binding signal
13 | TGGCCTGTTCACTTTGATGCTATTTTTAACCTTACCAAATCGGAGTCACCTAGTGCAG | 10700 fluorescence intensity (a.u.)
14 | ATCCTCGCTCACTTTCCATCTCACACGACGGCCACACTGACGGAGTCACCTAGTGCAG | 12700 fluorescence intensity (a.u.)
15 | ATATTCCTTACTTTTTAATTCCTAATTTCTATTTTTTTTCCGGAGTCACCTAGTGCAG | 8190 fluorescence intensity (a.u.)
16 | CCCATTCCAAGCTTTGACTTCTCACTAGCTTGACTACTGGCGGAGTCACCTAGTGCAG | 8040 fluorescence intensity (a.u.)
17 | GAGCTCCTACGCGTCGCCATCTCCTTCATCAACCACAAAACGGAGTCACCTAGTGCAG | 9980 fluorescence intensity (a.u.)
18 | AGGTGGGCCCGAAGTCTAAACCCTACTATTCCCAGATTCCCGGAGTCACCTAGTGCAG | 8200 fluorescence intensity (a.u.)
19 | ACTTTTCTACACACATAAACTTCTAACTTTTTCATCACATCGGAGTCACCTAGTGCAG | 13400 fluorescence intensity (a.u.)
20 | CATGGGAATTTTGGTGGGATGGGGATGGAGAATTGAGCAACGGAGTCACCTAGTGCAG | 8700 fluorescence intensity (a.u.)

The list continues:

Row | Sequence | binding signal
22 | GCAAGTCTACTGTCTACCCCACTCGTCGCGCTTCAGAGTCCGGAGTCACCTAGTGCAG | 8990 fluorescence intensity (a.u.)
23 | GCGATTTAACTTTTTTTTTTCTCTGTGACATTTCGTTACCCGGAGTCACCTAGTGCAG | 9000 fluorescence intensity (a.u.)
24 | AGGGAGGCGTAGGTTGTGGTCGTTGTTGCGGTTTGGAGTTCGGAGTCACCTAGTGCAG | 8250 fluorescence intensity (a.u.)
25 | GTCTTCTAGCTGCAGCCAGTTTCATGCTTATCACCGCCTACGGAGTCACCTAGTGCAG | 8440 fluorescence intensity (a.u.)
26 | GTGCTGTTCTTAATAGAGTATTCCAACCTTATGAGTCTCACGGAGTCACCTAGTGCAG | 9790 fluorescence intensity (a.u.)
27 | AAGTTTTCAACACTCCTCTTTCGTTTTCCGCATGCACGTTCGGAGTCACCTAGTGCAG | 8180 fluorescence intensity (a.u.)
28 | AAGGAGATAGTATAGGCTTTCATCGTTTCCTTTTTTTTCTCGGAGTCACCTAGTGCAG | 8040 fluorescence intensity (a.u.)
29 | CAGATCTCATCTCTCGGCCTGCCCTGCCCCTACGCACATTCGGAGTCACCTAGTGCAG | 9160 fluorescence intensity (a.u.)
30 | ATGCAGAATTATAAAACTGGTGGGAGGGAGGGAGTATTCCCGGAGTCACCTAGTGCAG | 9490 fluorescence intensity (a.u.)
31 | TGTACAAGCGCAAGAACGCGCTTTGCTCATTAACACACCACGGAGTCACCTAGTGCAG | 8120 fluorescence intensity (a.u.)
32 | GATGTACAATTTCCATTTCGTTATGTTCTTGACGTACTTGCGGAGTCACCTAGTGCAG | 8310 fluorescence intensity (a.u.)
33 | CCAACGTCGTACATCCCTCCACGTCATCGATCCGCGCCGCCGGAGTCACCTAGTGCAG | 9430 fluorescence intensity (a.u.)
34 | CACCTCGTTTTGCGTATCTTCTCAATCTTCTCTTTTCTTCCGGAGTCACCTAGTGCAG | 8820 fluorescence intensity (a.u.)
35 | ACTTCAATAAATATGTACTCCTTTTCATATAAGGGTTATTCGGAGTCACCTAGTGCAG | 8190 fluorescence intensity (a.u.)
36 | ATCATCTCGTCTCGTCAGTCAAATCATCATTTGGTCAACACGGAGTCACCTAGTGCAG | 12600 fluorescence intensity (a.u.)
37 | CCCGCCGCCGCGACGCCCGTCCGTTCCCGATCCGGCGGCCCGGAGTCACCTAGTGCAG | 9850 fluorescence intensity (a.u.)
38 | GGCTGGGATATAATAAGAGAGATGCTTCAACCTATGAAGACGGAGTCACCTAGTGCAG | 8150 fluorescence intensity (a.u.)
39 | AGTGGTGGTGAAGTGGGTGAGAAACTATCTTCTGTTCCTCCGGAGTCACCTAGTGCAG | 10200 fluorescence intensity (a.u.)
40 | GACATCACGACACGTCATCGCTGTTCCGCCACCTCTGCAGCGGAGTCACCTAGTGCAG | 9200 fluorescence intensity (a.u.)
41 | GCCCATATCACCGACAGGTACGTTTTTTTAAAAATTTTTCCGGAGTCACCTAGTGCAG | 9600 fluorescence intensity (a.u.)
42 | ATCCAACAATGTACTGCACTACTATCAACGTATATCATCACGGAGTCACCTAGTGCAG | 8920 fluorescence intensity (a.u.)
